# The other results are listed elsewhere or left out.
# B1: Latrophilin-3 (Homo sapiens), Q9HAR2 (protein)
# chain: MWPSQLLIFMMLLAPIIHAFSRAPIPMAVVRRELSCESYPIELRCPGTDVIMIESANYGRTDDKICDSDPAQMENIRCYLPDAYKIMSQRCNNRTQCAVVAGPDVFPDPCPGTYKYLEVQYECVPYKVEQKVFLCPGLLKGVYQSEHLFESDHQSGAWCKDPLQASDKIYYMPWTPYRTDTLTEYSSKDDFIAGRPTTTYKLPHRVDGTGFVVYDGALFFNKERTRNIVKFDLRTRIKSGEAIIANANYHDTSPYRWGGKSDIDLAVDENGLWVIYATEQNNGKIVISQLNPYTLRIEGTWDTAYDKRSASNAFMICGILYVVKSVYEDDDNEATGNKIDYIYNTDQSKDSLVDVPFPNSYQYIAAVDYNPRDNLLYVWNNYHVVKYSLDFGPLDSRSGQAHHGQVSYISPPIHLDSELERPSVKDISTTGPLGMGSTTTSTTLRTTTLSPGRSTTPSVSGRRNRSTSTPSPAVEVLDDMTTHLPSASSQIPALEESCEAVEAREIMWFKTRQGQIAKQPCPAGTIGVSTYLCLAPDGIWDPQGPDLSNCSSPWVNHITQKLKSGETAANIARELAEQTRNHLNAGDITYSVRAMDQLVGLLDVQLRNLTPGGKDSAARSLNKAMVETVNNLLQPQALNAWRDLTTSDQLRAATMLLHTVEESAFVLADNLLKTDIVRENTDNIKLEVARLSTEGNLEDLKFPENMGHGSTIQLSANTLKQNGRNGEIRVAFVLYNNLGPYLSTENASMKLGTEALSTNHSVIVNSPVITAAINKEFSNKVYLADPVVFTVKHIKQSEENFNPNCSFWSYSKRTMTGYWSTQGCRLLTTNKTHTTCSCNHLTNFAVLMAHVEVKHSDAVHDLLLDVITWVGILLSLVCLLICIFTFCFFRGLQSDRNTIHKNLCISLFVAELLFLIGINRTDQPIACAVFAALLHFFFLAAFTWMFLEGVQLYIMLVEVFESEHSRRKYFYLVGYGMPALIVAVSAAVDYRSYGTDKVCWLRLDTYFIWSFIGPATLIIMLNVIFLGIALYKMFHHTAILKPESGCLDNIKSWVIGAIALLCLLGLTWAFGLMYINESTVIMAYLFTIFNSLQGMFIFIFHCVLQKKVRKEYGKCLRTHCCSGKSTESSIGSGKTSGSRTPGRYSTGSQSRIRRMWNDTVRKQSESSFITGDINSSASLNREGLLNNARDTSVMDTLPLNGNHGNSYSIASGEYLSNCVQIIDRGYNHNETALEKKILKELTSNYIPSYLNNHERSSEQNRNLMNKLVNNLGSGREDDAIVLDDATSFNHEESLGLELIHEESDAPLLPPRVYSTENHQPHHYTRRRIPQDHSESFFPLLTNEHTEDLQSPHRDSLYTSMPTLAGVAATESVTTSTQTEPPPAKCGDAEDVYYKSMPNLGSRNHVHQLHTYYQLGRGSSDGFIVPPNKDGTPPEGSSKGPAHLVTSL
# Key:
# Experiment in all cases: glycan array binding signal (z-score within array); higher = stronger binding
# Conditions in all cases: glycan notation: IUPAC condensed, linker removed
# [1] = target: Neu5Ac(a2-6)GalNAc(b1-4)GlcNAc6S
# Method in brief: (§1)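 From the Consortium for Functional Glycomics database, 3228 arrays were curated, keeping only those whose protein sequence was available. Binding is given as a within-array Z-score averaged across arrays sharing a protein sequence and across linkers. Negative Z-scores can be read as non-binding.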
# [2] = target: Neu5Ac(a2-6)GlcNAc(b1-4)GlcNAc
# Method in brief: as §1
# [3] = target: Neu5Ac(a2-6)GlcNAc(b1-4)GlcNAc(b1-4)GlcNAc
# Method in brief: as §1
# Neu5Ac(a2-8)Neu5Ac = target: Neu5Ac(a2-8)Neu5Ac
# Method in brief: as §1
# [4] = target: Neu5Ac(a2-8)Neu5Ac(a2-3)Gal(b1-3)GalNAc(b1-4)[Neu5Ac(a2-8)Neu5Ac(a2-3)]Gal(b1-4)Glc
# Method in brief: as §1
# [5] = target: Neu5Ac(a2-8)Neu5Ac(a2-3)Gal(b1-4)Glc
# Method in brief: as §1
# [6] = target: Neu5Ac(a2-8)Neu5Ac(a2-3)[Gal(b1-3)GalNAc(b1-4)]Gal(b1-4)Glc
# Method in brief: as §1
# [7] = target: Neu5Ac(a2-8)Neu5Ac(a2-3)[GalNAc(b1-4)]Gal(b1-4)Glc
# Method in brief: as §1
# [8] = target: Neu5Ac(a2-8)Neu5Ac(a2-8)Neu5Ac
# Method in brief: as §1
# [9] = target: Neu5Ac(a2-8)Neu5Ac(a2-8)Neu5Ac(a2-3)Gal(b1-4)Glc
# Method in brief: as §1
# [10] = target: Neu5Ac(a2-8)Neu5Ac(a2-8)Neu5Ac(a2-3)[GalNAc(b1-4)]Gal(b1-4)Glc
# Method in brief: as §1
# [11] = target: Neu5Ac(a2-8)Neu5Ac(a2-8)Neu5Ac(a2-8)Neu5Ac(a2-3)[GalNAc(b1-4)]Gal(b1-4)Glc
# Method in brief: as §1
# [12] = target: Neu5Ac(b2-6)Gal(b1-4)GlcNAc
# Method in brief: as §1
# Neu5Ac(b2-6)GalNAc = target: Neu5Ac(b2-6)GalNAc
# Method in brief: as §1
# [13] = target: Neu5Ac9Ac(a2-3)Gal(b1-3)GlcNAc
# Method in brief: as §1
# [14] = target: Neu5Ac9Ac(a2-3)Gal(b1-4)GlcNAc
# Method in brief: as §1
# [15] = target: Neu5Ac9Ac(a2-6)Gal(b1-4)GlcNAc
# Method in brief: as §1
# [16] = target: Neu5Gc(a2-3)Gal(b1-3)GlcNAc
# Method in brief: as §1
# [17] = target: Neu5Gc(a2-3)Gal(b1-3)[Fuc(a1-4)]GlcNAc
# Method in brief: as §1
# Neu5Gc(a2-3)Gal(b1-4)Glc = target: Neu5Gc(a2-3)Gal(b1-4)Glc
# Method in brief: as §1
# [18] = target: Neu5Gc(a2-3)Gal(b1-4)GlcNAc
# Method in brief: as §1
# [19] = target: Neu5Gc(a2-3)Gal(b1-4)[Fuc(a1-3)]GlcNAc
# Method in brief: as §1
# [20] = target: Neu5Gc(a2-6)Gal(b1-4)GlcNAc
# Method in brief: as §1
# Neu5Gc(a2-6)GalNAc = target: Neu5Gc(a2-6)GalNAc
# Method in brief: as §1
# [21] = target: Neu5Gc(b2-6)Gal(b1-4)GlcNAc
# Method in brief: as §1
binder,measurement,setting,value
B1,glycan array binding signal (z-score),[1],-0.44
same,glycan array binding signal (z-score),[2],-0.089
same,glycan array binding signal (z-score),[3],-0.108
same,glycan array binding signal (z-score),Neu5Ac(a2-8)Neu5Ac,-0.096
same,glycan array binding signal (z-score),[4],-0.313
same,glycan array binding signal (z-score),[5],-0.343
same,glycan array binding signal (z-score),[6],-0.672
same,glycan array binding signal (z-score),[7],-0.198
same,glycan array binding signal (z-score),[8],-1.22
same,glycan array binding signal (z-score),[9],-0.841
same,glycan array binding signal (z-score),[10],-1.01
same,glycan array binding signal (z-score),[11],-1.76
same,glycan array binding signal (z-score),[12],0.351
same,glycan array binding signal (z-score),Neu5Ac(b2-6)GalNAc,1.22
same,glycan array binding signal (z-score),[13],-0.552
same,glycan array binding signal (z-score),[14],0.731
same,glycan array binding signal (z-score),[15],-0.383
same,glycan array binding signal (z-score),[16],-1.71
same,glycan array binding signal (z-score),[17],-0.381
same,glycan array binding signal (z-score),Neu5Gc(a2-3)Gal(b1-4)Glc,0.387
same,glycan array binding signal (z-score),[18],0.533
same,glycan array binding signal (z-score),[19],0.754
same,glycan array binding signal (z-score),[20],0.125
same,glycan array binding signal (z-score),Neu5Gc(a2-6)GalNAc,1.3
same,glycan array binding signal (z-score),[21],0.723

# Some of the entries so far, with bars between the fields.
binder | measurement | setting | value
B1 | glycan array binding signal (z-score) | [6] | -0.672
same | glycan array binding signal (z-score) | [7] | -0.198
